Assay results taken from paper doi:10.1101/2022.11.20.517165.

Target: Toc75 (Chlamydomonas reinhardtii)
Assay: cryo-EM structure

B1: Toc34 (protein, UniProt A8HYJ1 1-397)
chain: MAQPPRPAEEYDDDVQEDEDELKEGELDDDESHEAASEGGEAAAGDEEAEDDEQDEEDGDEDSQPWAGLNRLPERDDMLDILNELRAEGRKQLTVLLLGKSSVGKSSLINSLLGEAVVRVQAFKLQADTDITTTVVRQVAVGNSEVDGFRLKLIDTCGLEDPEAGDTVNLGALSKIAEDVRGVGIDVVLYCDRLDLYRVDPLDKAIIDAISSTFGRGIWRRTVVALTHANLVQTPPGTDYDSFVNGRVRLIRGAVRGPLFFRPSLPVALVENSETCPVSSESGFRVLPDGEPWLVALVSQLVDMAAARRRPYKYHPRLSSKPSHRFRWLLPVAIAAEVLFYRRFLHPRLDDNQRRVEREEERVWALRGQQRRALGLHRPHRPDKDAAWRLEQMYDDD
With B1 the binding was “binds”.

Results are given in words; binding and its absence hold for the method and conditions named. Binding calls can cover weak binding; strength is not graded here.
